Experimental data taken from publication PMC6527704.
These are yes or no findings as the source states them, for the method shown. Binding seen in cells or lysates may run through a third protein. Some binding calls cover weakened binding; strength is not graded here.

Protein sequences, listed by entry. Tags and fused reporters are not part of them. Lines headed by an entry give the natural chain unless they say otherwise; changes in a name come on top.
UniProt Q01780: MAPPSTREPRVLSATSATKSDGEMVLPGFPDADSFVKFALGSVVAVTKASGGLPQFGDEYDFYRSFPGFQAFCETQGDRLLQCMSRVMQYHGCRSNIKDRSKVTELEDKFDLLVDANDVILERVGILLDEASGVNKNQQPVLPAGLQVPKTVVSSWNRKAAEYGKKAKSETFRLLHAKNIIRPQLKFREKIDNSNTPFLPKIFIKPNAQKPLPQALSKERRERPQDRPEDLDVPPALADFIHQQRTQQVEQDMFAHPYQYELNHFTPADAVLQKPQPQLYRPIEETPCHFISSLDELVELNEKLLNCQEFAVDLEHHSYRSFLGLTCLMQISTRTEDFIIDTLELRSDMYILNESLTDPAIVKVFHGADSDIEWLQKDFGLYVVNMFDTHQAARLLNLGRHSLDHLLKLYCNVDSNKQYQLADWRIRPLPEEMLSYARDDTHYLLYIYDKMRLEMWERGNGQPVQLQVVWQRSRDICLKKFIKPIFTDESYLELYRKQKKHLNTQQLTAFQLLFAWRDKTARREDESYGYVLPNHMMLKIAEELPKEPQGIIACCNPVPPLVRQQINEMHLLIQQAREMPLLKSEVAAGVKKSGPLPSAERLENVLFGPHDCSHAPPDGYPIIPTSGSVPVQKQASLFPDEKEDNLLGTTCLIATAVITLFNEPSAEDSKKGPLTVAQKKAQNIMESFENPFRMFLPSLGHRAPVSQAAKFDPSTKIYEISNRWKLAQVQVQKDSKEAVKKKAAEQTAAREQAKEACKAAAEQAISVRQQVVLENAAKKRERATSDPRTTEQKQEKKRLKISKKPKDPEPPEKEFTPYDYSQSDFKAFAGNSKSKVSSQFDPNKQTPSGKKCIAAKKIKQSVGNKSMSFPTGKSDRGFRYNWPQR
UniProt Q15910: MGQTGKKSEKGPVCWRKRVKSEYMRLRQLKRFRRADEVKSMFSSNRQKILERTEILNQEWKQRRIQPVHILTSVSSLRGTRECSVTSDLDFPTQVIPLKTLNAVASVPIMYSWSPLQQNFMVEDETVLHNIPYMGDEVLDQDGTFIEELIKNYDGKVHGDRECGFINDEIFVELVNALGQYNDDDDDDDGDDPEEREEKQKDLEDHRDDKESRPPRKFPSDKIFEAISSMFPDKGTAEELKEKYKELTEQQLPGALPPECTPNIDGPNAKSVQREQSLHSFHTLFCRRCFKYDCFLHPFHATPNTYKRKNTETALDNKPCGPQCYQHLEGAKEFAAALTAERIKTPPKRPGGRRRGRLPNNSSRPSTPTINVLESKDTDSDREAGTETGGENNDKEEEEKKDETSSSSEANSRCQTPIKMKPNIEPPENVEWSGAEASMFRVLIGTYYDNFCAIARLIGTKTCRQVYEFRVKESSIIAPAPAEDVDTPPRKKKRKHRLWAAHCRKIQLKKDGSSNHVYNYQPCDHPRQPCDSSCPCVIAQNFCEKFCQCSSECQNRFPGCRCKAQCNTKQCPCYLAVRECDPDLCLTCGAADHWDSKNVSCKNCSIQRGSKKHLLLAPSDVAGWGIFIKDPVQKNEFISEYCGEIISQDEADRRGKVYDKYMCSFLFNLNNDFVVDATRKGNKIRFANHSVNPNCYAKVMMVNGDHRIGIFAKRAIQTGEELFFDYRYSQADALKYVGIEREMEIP
UniProt Q13547: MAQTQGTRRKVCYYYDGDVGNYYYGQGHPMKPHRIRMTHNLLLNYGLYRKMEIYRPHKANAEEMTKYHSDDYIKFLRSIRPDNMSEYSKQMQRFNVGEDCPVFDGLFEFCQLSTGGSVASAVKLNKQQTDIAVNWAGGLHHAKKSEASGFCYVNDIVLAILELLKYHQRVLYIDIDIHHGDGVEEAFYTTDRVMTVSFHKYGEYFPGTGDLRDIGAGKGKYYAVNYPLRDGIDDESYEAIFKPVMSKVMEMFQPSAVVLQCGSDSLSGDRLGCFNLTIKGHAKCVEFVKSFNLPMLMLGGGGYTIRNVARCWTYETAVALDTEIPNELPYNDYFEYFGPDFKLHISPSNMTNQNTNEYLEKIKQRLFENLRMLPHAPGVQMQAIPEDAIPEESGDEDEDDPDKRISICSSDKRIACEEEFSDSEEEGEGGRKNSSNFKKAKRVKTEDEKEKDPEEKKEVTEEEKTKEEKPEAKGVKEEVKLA

Experiments:
[1] = target: MiCEE complex (Mirlet7d-C1D-EXOSC10-EZH2) (human (endogenous in primary lung fibroblasts)) (UniProt Q13901+Q01780+Q15910); assay: co-sedimentation; 5-40% sucrose gradient ultracentrifugation (16 h 30 min, 132,000 x g) of nuclear extracts from Ctrl primary human lung fibroblasts in native nuclear lysis buffer (100 mM NaCl, 50 mM Tris-HCl pH 7.0); ten fractions analysed by western blot; the complex was also reconstituted in IPF fibroblasts transfected with MIRLET7D
[2] = target: T1, exosome-associated protein C1D (human (endogenous in primary lung fibroblasts)) (UniProt Q13901); assay: co-IP; C1D-specific antibodies precipitate endogenous C1D from nuclear protein extracts of IPF primary human lung fibroblasts treated with the EP300 inhibitor CBP30 (EP300inh); western blot
T1 sequence: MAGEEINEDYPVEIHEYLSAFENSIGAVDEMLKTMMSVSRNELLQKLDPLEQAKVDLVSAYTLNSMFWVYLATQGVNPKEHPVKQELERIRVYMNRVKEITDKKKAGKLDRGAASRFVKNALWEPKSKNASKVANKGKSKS

[3] = target: T1, exosome-associated protein C1D (human (endogenous in primary lung fibroblasts)); assay: co-IP; C1D-specific antibodies precipitate endogenous C1D from nuclear protein extracts of Ctrl primary human lung fibroblasts transfected with HA-tagged EXOSC10 full-length or del3 (lacking amino acids 1-285); western blot
[4] = target: T1, exosome-associated protein C1D (human (endogenous in primary lung fibroblasts)); assay: condition: only nuclear extracts of IPF fibroblasts (empty plasmid, lane 7); co-IP; C1D-specific antibodies precipitate endogenous C1D from nuclear protein extracts of IPF primary human lung fibroblasts transfected with empty plasmid (lane 7); western blot
[5] = target: T1, exosome-associated protein C1D (human (endogenous in primary lung fibroblasts)); assay: co-IP; C1D-specific antibodies precipitate endogenous C1D from nuclear protein extracts of IPF primary human lung fibroblasts transfected with a dominant-negative EP300 (dnEP300, D1399Y) expression construct; western blot

binding [1]: binds
binding [2]: binds
binding [3]: binds
binding [4]: no binding
binding [5]: binds
Substance: histone deacetylase 1 (from UniProt Q13547 1-482) (enzyme)
